Reference: PMC12042439
No constants are given. Whether binding was seen depends on the method and setting. In cells and extracts the contact can be indirect. Some results given as binding are weak or reduced against the parent protein; the word gives no strength.

Chains of the proteins cited; added tags and fusions are not shown. Residues count along the entry.
UniProt O08859, residues 18-275: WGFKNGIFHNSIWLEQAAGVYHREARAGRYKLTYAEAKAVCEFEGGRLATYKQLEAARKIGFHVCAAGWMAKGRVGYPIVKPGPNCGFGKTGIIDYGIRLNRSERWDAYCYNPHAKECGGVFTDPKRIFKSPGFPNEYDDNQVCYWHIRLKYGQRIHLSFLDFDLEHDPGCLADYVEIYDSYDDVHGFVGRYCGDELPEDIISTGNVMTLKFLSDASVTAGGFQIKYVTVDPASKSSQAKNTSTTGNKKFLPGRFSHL

Molecular target: T1, Pou class 2 homeobox 3 (Pou2f3), endogenous in MODE-K cells (mouse (endogenous in MODE-K)) (UniProt P31362)
T1 sequence: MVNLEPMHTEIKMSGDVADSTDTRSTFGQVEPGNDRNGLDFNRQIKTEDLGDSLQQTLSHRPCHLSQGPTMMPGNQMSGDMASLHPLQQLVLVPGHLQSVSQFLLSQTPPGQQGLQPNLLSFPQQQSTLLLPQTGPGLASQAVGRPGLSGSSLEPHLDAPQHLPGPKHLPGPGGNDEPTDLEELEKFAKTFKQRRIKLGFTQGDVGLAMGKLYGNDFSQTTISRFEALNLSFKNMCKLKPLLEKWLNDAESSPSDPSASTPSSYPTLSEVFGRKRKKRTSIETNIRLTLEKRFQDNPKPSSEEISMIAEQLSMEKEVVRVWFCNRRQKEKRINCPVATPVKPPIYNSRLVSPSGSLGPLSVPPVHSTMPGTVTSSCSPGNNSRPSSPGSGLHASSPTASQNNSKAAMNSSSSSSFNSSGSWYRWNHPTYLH
Assay: co-IP; MODE-K cells, empty vector transfected (NC) or TSG-6-overexpressed (OE); mouse IgG as negative control; which protein was precipitated is not told

| binding | Substance |
| --- | --- |
| binds | TSG-6 overexpressed in MODE-K cells (OE) (from UniProt O08859 18-275) |
| binds | Tumor necrosis factor α stimulated gene 6 (TSG-6), endogenous in MODE-K cells (from UniProt O08859 18-275) |
